# Some of the results follow.
# B1: SP15308F-bth-333-19-333 (Bacteroides thetaiotaomicron) (protein)
# chain: SCNNEWESEQYVQMVSFKAPVNAQGVTPIYIRYKPEGKVTYQLPLIVSGSTMNSKDLNVHVGLDLDTLDVLNVEHFGSRKELFFKPLENKYYEFPETVQIPAGECTSLLPIDFALKDLDQVDKWVLPLAIQSNDPSHNYQANPRKFYRRAMLRISPFNDYSGQYSATAYKVYFKGNEKEAIVPEYHTSYVIDDKTIFFYAGLIDIDRLDRKYYKIKFEFTEEKIDLQTRKLKISSDNEDINLVVKGQPSYTVEEEMDATRPYLKHIYVTINNLEYEFTDYTSVPGYPLEYVVKGSLTMERKINTQIPDEDQAIEW
# Key:
# Assay in all cases: glycan array binding signal (z-score within array); higher = stronger binding
# Settings in all cases: glycan notation: IUPAC condensed, linker removed
# Neu5Ac(a2-8)Neu5Ac = target: Neu5Ac(a2-8)Neu5Ac
# In short: (§1)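 Glycan array binding is given as a within-array Z-score, which can be read as non-binding when negative. The arrays, 3228 of them, came from the Consortium for Functional Glycomics database and were retained only where the protein sequence was available. Z-scores were averaged across arrays of the same protein sequence at different concentrations or buffers and across linkers.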
# [1] = target: Neu5Ac(a2-8)Neu5Ac(a2-3)Gal(b1-3)GalNAc(b1-4)[Neu5Ac(a2-3)]Gal(b1-4)Glc
# In short: as §1
# [2] = target: Neu5Ac(a2-8)Neu5Ac(a2-3)Gal(b1-3)GalNAc(b1-4)[Neu5Ac(a2-8)Neu5Ac(a2-3)]Gal(b1-4)Glc
# In short: as §1
# [3] = target: Neu5Ac(a2-8)Neu5Ac(a2-3)Gal(b1-4)Glc
# In short: as §1
# [4] = target: Neu5Ac(a2-8)Neu5Ac(a2-3)Gal(b1-4)GlcNAc
# In short: as §1
# [5] = target: Neu5Ac(a2-8)Neu5Ac(a2-3)[Gal(b1-3)GalNAc(b1-4)]Gal(b1-4)Glc
# In short: as §1
# [6] = target: Neu5Ac(a2-8)Neu5Ac(a2-3)[GalNAc(b1-4)]Gal(b1-4)Glc
# In short: as §1
# [7] = target: Neu5Ac(a2-8)Neu5Ac(a2-8)Neu5Ac
# In short: as §1
# [8] = target: Neu5Ac(a2-8)Neu5Ac(a2-8)Neu5Ac(a2-3)Gal(b1-4)Glc
# In short: as §1
# [9] = target: Neu5Ac(a2-8)Neu5Ac(a2-8)Neu5Ac(a2-3)[Gal(b1-3)GalNAc(b1-4)]Gal(b1-4)Glc
# In short: as §1
# [10] = target: Neu5Ac(a2-8)Neu5Ac(a2-8)Neu5Ac(a2-3)[GalNAc(b1-4)]Gal(b1-4)Glc
# In short: as §1
# [11] = target: Neu5Ac(a2-8)Neu5Ac(a2-8)Neu5Ac(a2-8)Neu5Ac(a2-3)[GalNAc(b1-4)]Gal(b1-4)Glc
# In short: as §1
# [12] = target: Neu5Ac(a2-8)Neu5Gc(a2-3)Gal(b1-4)GlcNAc
# In short: as §1
# [13] = target: Neu5Ac(b2-6)Gal(b1-4)GlcNAc
# In short: as §1
# Neu5Ac(b2-6)GalNAc = target: Neu5Ac(b2-6)GalNAc
# In short: as §1
# [14] = target: Neu5Ac9Ac(a2-3)Gal(b1-3)GlcNAc
# In short: as §1
# [15] = target: Neu5Ac9Ac(a2-3)Gal(b1-4)GlcNAc
# In short: as §1
# [16] = target: Neu5Ac9Ac(a2-6)Gal(b1-4)GlcNAc
# In short: as §1
# [17] = target: Neu5Gc(a2-3)Gal(b1-3)GlcNAc
# In short: as §1
# [18] = target: Neu5Gc(a2-3)Gal(b1-3)[Fuc(a1-4)]GlcNAc
# In short: as §1
# Neu5Gc(a2-3)Gal(b1-4)Glc = target: Neu5Gc(a2-3)Gal(b1-4)Glc
# In short: as §1
# [19] = target: Neu5Gc(a2-3)Gal(b1-4)GlcNAc
# In short: as §1
# [20] = target: Neu5Gc(a2-3)Gal(b1-4)GlcNAc(b1-3)Gal(b1-4)GlcNAc(b1-2)Man(a1-3)[Neu5Gc(a2-3)Gal(b1-4)GlcNAc(b1-3)Gal(b1-4)GlcNAc(b1-2)Man(a1-6)]Man(b1-4)GlcNAc(b1-4)GlcNAc
# In short: as §1
# [21] = target: Neu5Gc(a2-3)Gal(b1-4)[Fuc(a1-3)]GlcNAc
# In short: as §1
# [22] = target: Neu5Gc(a2-6)Gal(b1-4)GlcNAc
# In short: as §1
# Neu5Gc(a2-6)GalNAc = target: Neu5Gc(a2-6)GalNAc
# In short: as §1
# [23] = target: Neu5Gc(a2-8)Neu5Ac(a2-3)Gal(b1-4)GlcNAc
# In short: as §1
# [24] = target: Neu5Gc(a2-8)Neu5Gc(a2-3)Gal(b1-4)GlcNAc
# In short: as §1
# [25] = target: Neu5Gc(a2-8)Neu5Gc(a2-3)Gal(b1-4)GlcNAc(b1-3)Gal(b1-4)GlcNAc
# In short: as §1
# [26] = target: Neu5Gc(a2-8)Neu5Gc(a2-6)Gal(b1-4)GlcNAc
# In short: as §1
# [27] = target: Neu5Gc(b2-6)Gal(b1-4)GlcNAc
# In short: as §1
binder,measurement,setting,value
B1,glycan array binding signal (z-score),Neu5Ac(a2-8)Neu5Ac,0.541
same,glycan array binding signal (z-score),[1],-0.745
same,glycan array binding signal (z-score),[2],1.36
same,glycan array binding signal (z-score),[3],-1.69
same,glycan array binding signal (z-score),[4],-0.461
same,glycan array binding signal (z-score),[5],0.283
same,glycan array binding signal (z-score),[6],-0.682
same,glycan array binding signal (z-score),[7],-0.609
same,glycan array binding signal (z-score),[8],-0.372
same,glycan array binding signal (z-score),[9],-0.122
same,glycan array binding signal (z-score),[10],-0.133
same,glycan array binding signal (z-score),[11],-0.063
same,glycan array binding signal (z-score),[12],0.16
same,glycan array binding signal (z-score),[13],0.245
same,glycan array binding signal (z-score),Neu5Ac(b2-6)GalNAc,-0.677
same,glycan array binding signal (z-score),[14],0.704
same,glycan array binding signal (z-score),[15],-0.366
same,glycan array binding signal (z-score),[16],-1.32
same,glycan array binding signal (z-score),[17],0.049
same,glycan array binding signal (z-score),[18],0.217
same,glycan array binding signal (z-score),Neu5Gc(a2-3)Gal(b1-4)Glc,1
same,glycan array binding signal (z-score),[19],0.838
same,glycan array binding signal (z-score),[20],-0.366
same,glycan array binding signal (z-score),[21],-0.947
same,glycan array binding signal (z-score),[22],-0.941
same,glycan array binding signal (z-score),Neu5Gc(a2-6)GalNAc,0.096
same,glycan array binding signal (z-score),[23],2.07
same,glycan array binding signal (z-score),[24],-0.784
same,glycan array binding signal (z-score),[25],-0.522
same,glycan array binding signal (z-score),[26],-0.185
same,glycan array binding signal (z-score),[27],1.06
